Measurements as given in article PMC7819943, “Rice protein-binding microarrays: a tool to detect cis-acting elements near promoter regions in rice”.
The other results are listed elsewhere or left out.

Each sequence was assayed against T1, OsSMF1 (Oryza sativa, UniProt Q6ZLB0 1-436) (assay: protein-binding microarray (RPBM); PBS, 2% BSA, 51.3 ng/ul salmon testes DNA, 50 uM zinc acetate, 200 nM TF, 25 C, 1 h; high values mean tight binding). Settings: protein: recombinant; tags: N-terminal polyhistidine and DsRed monomer fusion (pET32a); chain copies: 2; label: CyDye5-dUTP incorporated in the synthesized complementary strand; 3' TTTTT single-stranded linker to array surface; dsDNA, one strand shown.
T1 sequence: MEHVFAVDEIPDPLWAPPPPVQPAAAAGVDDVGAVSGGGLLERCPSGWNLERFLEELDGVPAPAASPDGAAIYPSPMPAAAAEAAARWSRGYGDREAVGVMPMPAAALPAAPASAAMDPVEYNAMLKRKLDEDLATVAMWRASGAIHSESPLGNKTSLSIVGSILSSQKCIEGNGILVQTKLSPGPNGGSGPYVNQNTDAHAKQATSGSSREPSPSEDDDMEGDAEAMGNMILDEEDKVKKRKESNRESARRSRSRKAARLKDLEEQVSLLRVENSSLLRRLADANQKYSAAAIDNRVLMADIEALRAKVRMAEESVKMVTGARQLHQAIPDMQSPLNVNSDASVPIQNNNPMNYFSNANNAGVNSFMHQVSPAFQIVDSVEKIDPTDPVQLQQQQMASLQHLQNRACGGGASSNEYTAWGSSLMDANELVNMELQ
Procedure, shortened: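 Polyhistidine-tagged DsRed fusions of transcription factors, joined at the N-terminus, were expressed in E. coli BL21-CodonPlus and isolated on Ni–NTA. They were incubated at 200 nM for 1 h at 25 °C on a custom Agilent array, double-stranded and BSA-blocked, in PBS with 2% BSA, salmon testes DNA and 50 µM zinc acetate. The binding signal is per-feature fluorescence intensity (arbitrary units) read on an Axon 4000B scanner after washing.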

Row | Sequence | binding signal
1 | ACCTTGAGTTTGAGTGCGATTCCTCCCTTCTTTCGGTCACCGGAGTCACCTAGTGCAG | 21100 fluorescence intensity (a.u.)
2 | TGAGCTTTGATGGTATGACTCGATTGTCAGAGTGGTCTGGCGGAGTCACCTAGTGCAG | 3810 fluorescence intensity (a.u.)
3 | CACTGCAAGTGGTGGTGGTGTTTAGCCTTGTGGGCGCAGCCGGAGTCACCTAGTGCAG | 3520 fluorescence intensity (a.u.)
4 | GATGGTGTTGAAGAGCAAAGTCATGTTAGTATTTCACTTCCGGAGTCACCTAGTGCAG | 4700 fluorescence intensity (a.u.)
5 | ACTTCCGCCTTCGCCTCGCGCCACCGCGTCCACATCTGCCCGGAGTCACCTAGTGCAG | 3450 fluorescence intensity (a.u.)
6 | AGTTCATATACACCTCATCATGCTTTTCATGGATGAAAATCGGAGTCACCTAGTGCAG | 3710 fluorescence intensity (a.u.)
7 | GGCCGGCGACGCTGAACGGGGTGGGGTAGTCTGCTATTTACGGAGTCACCTAGTGCAG | 3580 fluorescence intensity (a.u.)
8 | CTGGCTCTAGTGCTGTACCCATATATACCACGTAGGCAGCCGGAGTCACCTAGTGCAG | 10500 fluorescence intensity (a.u.)
9 | TGCTGAGATAGAGAGCCACTGAGTCAGATCCGACAAAAGCCGGAGTCACCTAGTGCAG | 5890 fluorescence intensity (a.u.)
10 | GGCTATACAAGCTACCACATCAGATTTGTACTTATGTAGACGGAGTCACCTAGTGCAG | 4530 fluorescence intensity (a.u.)
11 | GAATTCACATGCCCTTGTCATCATGAATATATATTAGTGGCGGAGTCACCTAGTGCAG | 4100 fluorescence intensity (a.u.)
12 | AATAAGACGAACGGTCAAACATGTTTTCAAAAGTCAACGGCGGAGTCACCTAGTGCAG | 27800 fluorescence intensity (a.u.)
13 | AATAGTAGGGTGTGTCACTAGTTGGCTACTTGGCTGTGCACGGAGTCACCTAGTGCAG | 4240 fluorescence intensity (a.u.)
14 | GTTTGGGATGTCGCGGGGATTTAGGGGCGGTGGGTGGTTTCGGAGTCACCTAGTGCAG | 4870 fluorescence intensity (a.u.)
15 | TCTCTGACGGCGGTTGGTAGGGTTGGTGAGGCCGAGCGCGCGGAGTCACCTAGTGCAG | 4460 fluorescence intensity (a.u.)
16 | CGGCCATGGGTGAGAGAAGGAGAGGAGAGGGTTTAGGGCTCGGAGTCACCTAGTGCAG | 3580 fluorescence intensity (a.u.)
17 | TGACTGACGTGGGATGCTTTTGACCAACCTTTGACTGAGGCGGAGTCACCTAGTGCAG | 9270 fluorescence intensity (a.u.)
18 | CCGTTCACGAGCTCTCCGCCTCTCTCCTCCTCACCAATTTCGGAGTCACCTAGTGCAG | 20400 fluorescence intensity (a.u.)
19 | CGCAGTTGGCGAGCGACATGACACGGCATGTGTTGGGTGGCGGAGTCACCTAGTGCAG | 4530 fluorescence intensity (a.u.)
20 | ACTATATTCCTCTCGACGGCCGTTGCCACGCACCGGCGACCGGAGTCACCTAGTGCAG | 3570 fluorescence intensity (a.u.)
21 | GAAGCTGTACGAGAACGGCAGCTACGTCATCGTGACCACGCGGAGTCACCTAGTGCAG | 9320 fluorescence intensity (a.u.)
22 | GGCCCGCCCCGAGCCGTCCACGTGTACAAACCTCGGAAGCCGGAGTCACCTAGTGCAG | 19100 fluorescence intensity (a.u.)
23 | ATGTGCCCATCAAATCCAACGAATAAATGAGTCATCGGTTCGGAGTCACCTAGTGCAG | 11100 fluorescence intensity (a.u.)
24 | CACAGTACGTGGCAGCAGGTTGCCGCGTGGCACCACCGACCGGAGTCACCTAGTGCAG | 17000 fluorescence intensity (a.u.)
25 | AACCCACAGAAATAAAATGATTTTGACTCATTTTCACTTGCGGAGTCACCTAGTGCAG | 3450 fluorescence intensity (a.u.)
26 | GTGAGTTGTGTGGCCAGCGTTTCGACAGCAGCTCAAACTCCGGAGTCACCTAGTGCAG | 22000 fluorescence intensity (a.u.)
27 | TGCAGCGTTGGACGGCCGAAAAGACCAGCTAAGCATCATTCGGAGTCACCTAGTGCAG | 3200 fluorescence intensity (a.u.)

Row | Sequence | binding signal
28 | GCGAACAGCCTGCGAGTCGCCGTCGCCATCGTCAGCTCCCCGGAGTCACCTAGTGCAG | 4070 fluorescence intensity (a.u.)
29 | TTAGGATCACAGGCTTGACATGACTGTTTCTCTGTTAGGTCGGAGTCACCTAGTGCAG | 3920 fluorescence intensity (a.u.)
30 | TATATTCGTGTCATTTAGATACCATACCACATCCTGCTACCGGAGTCACCTAGTGCAG | 3240 fluorescence intensity (a.u.)
31 | CGAGCTCATCCATCGGCCCTCAAATTCGCCCCGAAGCACCCGGAGTCACCTAGTGCAG | 6650 fluorescence intensity (a.u.)
32 | AAACCTTTTCCCATTAAGATGGCGCTGCCTACGCAGCTGGCGGAGTCACCTAGTGCAG | 3600 fluorescence intensity (a.u.)
33 | AGAGCTGAGCCTTATGTGTGGTCTGTCTGTGCCTAGTCGACGGAGTCACCTAGTGCAG | 48400 fluorescence intensity (a.u.)
34 | GCACCGCCGCAAGGAATTCTGTTGTTTCCACCCCGCTCCCCGGAGTCACCTAGTGCAG | 3200 fluorescence intensity (a.u.)
35 | CAATTGACGCGCCTCGGTATAACCTCACTAGCTGCGTCATCGGAGTCACCTAGTGCAG | 4220 fluorescence intensity (a.u.)
36 | TTTGAGCTAGCTAGCTAGCTGAGGTGGGGCATATATATAACGGAGTCACCTAGTGCAG | 4610 fluorescence intensity (a.u.)
37 | AGCGGCCGCCGCCGCCGCTTGCAACCCAGCAAGCTAGGGTCGGAGTCACCTAGTGCAG | 34500 fluorescence intensity (a.u.)
38 | GCCCTAATGCACTCGTAATCTTGCTGTCTCTGCTTCGTTGCGGAGTCACCTAGTGCAG | 3880 fluorescence intensity (a.u.)
39 | GAGTGATGATGACTAGTCTACTGGAGTAGTACTAGTGGCCCGGAGTCACCTAGTGCAG | 4540 fluorescence intensity (a.u.)
40 | TCACGGTTCGACTACATCGGCTCTTCAGTGTCATCTACCTCGGAGTCACCTAGTGCAG | 3870 fluorescence intensity (a.u.)
41 | GCCCTCCCTGTCATCCCCGTCACCCATCCTGCCTGCTTTTCGGAGTCACCTAGTGCAG | 8530 fluorescence intensity (a.u.)
42 | GGTTGGTATTAACCGCTGATGGTGAATGCCAACCTCAGAACGGAGTCACCTAGTGCAG | 51200 fluorescence intensity (a.u.)
43 | GAACCGCACGAAATCGACCACGTCGTCGAGCTGCGCTGCGCGGAGTCACCTAGTGCAG | 4740 fluorescence intensity (a.u.)
44 | ATCGCACAACACACCATCACCTCCCTCTATGACAGTGGGCCGGAGTCACCTAGTGCAG | 3440 fluorescence intensity (a.u.)
45 | CAGCTACATGCCTCCTGTCTCTGTGCGTCATGCCGTCATCCGGAGTCACCTAGTGCAG | 5260 fluorescence intensity (a.u.)
46 | TAATATATATTTTCAAATTATTCAGTCTTTTGTTTGGGAGCGGAGTCACCTAGTGCAG | 4980 fluorescence intensity (a.u.)
47 | GGCTGTCCAACTTGCCACCTGCGTGGCAGCCGCATCGGCACGGAGTCACCTAGTGCAG | 4640 fluorescence intensity (a.u.)
48 | GTGCGACCCCTGCGCGCTACACGTGGCATGTCCGAATCTCCGGAGTCACCTAGTGCAG | 12400 fluorescence intensity (a.u.)
49 | TTAGGCTGACGCACGAGCAAACCACTTGATAGTTGACCGCCGGAGTCACCTAGTGCAG | 3890 fluorescence intensity (a.u.)
50 | GTATAAACCAAAGCCCTTGATGAAACGAATAATAAATGAACGGAGTCACCTAGTGCAG | 29300 fluorescence intensity (a.u.)
51 | AACTCACTCTTACACCTACATACTCATTCATCAAATCCAACGGAGTCACCTAGTGCAG | 3170 fluorescence intensity (a.u.)
52 | CTGTGCTGCAGGTCAAAGTCATGAAAGAAGCTCCAGTGCCCGGAGTCACCTAGTGCAG | 5440 fluorescence intensity (a.u.)
53 | CACATATAGTATGGTGATAAAACGTGGGTGCATGACTCTACGGAGTCACCTAGTGCAG | 3350 fluorescence intensity (a.u.)
54 | CCACATCGGATGCCACGTCAGCCCTAGCCACATCAGCGCACGGAGTCACCTAGTGCAG | 38500 fluorescence intensity (a.u.)

Part of the list above, reformatted.
AACTCACTCTTACACCTACATACTCATTCATCAAATCCAACGGAGTCACCTAGTGCAG
  binding signal: 3170 fluorescence intensity (a.u.)
CTGTGCTGCAGGTCAAAGTCATGAAAGAAGCTCCAGTGCCCGGAGTCACCTAGTGCAG
  binding signal: 5440 fluorescence intensity (a.u.)
